Measurements published in patent US20110207751A1, “HETEROCYCLIC COMPOUNDS AND USES AS ANTICANCER AGENTS” (priority 2010, published 2011).

Test system: MCF7 cells (human breast cancer cell line)
Test: Inhibition of cell proliferation, xCelligence cell index
Format: cell-based
Details: 72 hr post compound treatment, read-out: calculated IC50
Text: The biological activity of compounds disclosed herein was monitored and profiled using the Real-Time Cell Electronic Sensing (RT-CES®) system from ACEA Biosciences, Inc. The RT-CES system utilizes cell-substrate impedance technology to monitor cellular behavior inside tissue culture wells in a microtiter plate format. The technology features in the integration of molecular and cell biology with microelectronics and is based on the electronic detection of biological assay process. […]
For measurement of cell-substrate or cell-electrode impedance using RT-CES technology, microelectrodes having appropriate geometries are fabricated onto the bottom surfaces of microtiter plate or similar device, facing into the wells. […] When there are changes to the biological status of the cells analogue electronic readout signals are measured automatically and in real time, and are converted to digital signals for processing and for analysis. In a RT-CES system, a cell index (arbitrary representation of change in impedance) is automatically derived and provided based on measured electrode impedance values. […]
To quantify cell status based on the measured cell-electrode impedance, a parameter termed Cell Index is derived. Cell Index is a quantitative measure of the status of the cells in an electrode-containing well. […]

CC(=O)O[C@H]1C(=O)[C@@]2(C)[C@H]([C@H](OC(=O)c3ccccc3)[C@]3(O)C[C@H](OC(=O)[C@H](O)[C@@H](NC(=O)c4ccccc4)c4ccccc4)C(C)=C1C3(C)C)[C@]1(OC(C)=O)CO[C@@H]1C[C@@H]2O [paclitaxel]
IC50: 0.0113 µM
